Experimental data: PubChem BioAssay AID686938 (Drosophila RNAi Screening Center, 2013)
Test: 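Fly genes required for calcium entry once internal stores are emptied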 (primary screen). Cell system: Drosophila S2R+ cells. Reagent: long dsRNA against Drosophila genes, about 0.25 µg dsRNA per well, roughly 10,000 cells. Duration: 5 days of knock-down before the calcium assay. Conditions: thapsigargin (SERCA pump blocker) to empty calcium stores; entry signal taken 4 min after adding it. Detection: 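Duplicate raw fluo-4 intensities per well from a plate reader, at rest and four minutes after thapsigargin emptied calcium stores; entry-to-rest ratio filled for only some wells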. Direction: calcium entry signal: higher = stronger calcium signal after store depletion; resting calcium signal: higher = higher resting calcium signal. Call rule: 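Called when the plate z-score of the entry-to-rest ratio, mean of duplicates, falls below −3; wells with low overall dye signal (Fmax z below −2) or more than five off-targets excluded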. Calls: active = strongly reduced calcium entry; inactive = no strong reduction.
In all, the deposit lists about 23,000 reagents; below is a random part of those that have a named target and a result. In the full data, 75 (0.33%) got an active call. 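Raw plate signals without normalisation; calls rest on plate z-scores that were not deposited; ratio present for only 364 wells.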 A number with no mark means an inactive call. Not given: the dose of the treatment.

predicted target | amplicon | calcium entry signal, replicate 1 (fluorescence units) | calcium entry signal, replicate 2 (fluorescence units) | resting calcium signal, replicate 1 (fluorescence units) | resting calcium signal, replicate 2 (fluorescence units)
Caf1-105 (Chromatin assembly factor 1, p105 subunit) | DRSC06209 | 3.69e7 | 4.77e7 | 1.81e7 | 2.06e7
CG12857 | DRSC06197 | 3.30e7 | 3.14e7 | 1.68e7 | 1.52e7
ArgRS-m (Arginyl-tRNA synthetase, mitochondrial) | DRSC14186 | 4.06e7 | 3.32e7 | 1.79e7 | 1.41e7
Pph13 (PvuII-PstI homology 13) | DRSC00775 | 4.21e7 | – | 2.32e7 | –
Pph13 (PvuII-PstI homology 13) | DRSC23162 | 4.20e7 | 3.00e7 | 2.10e7 | 1.24e7
CG13634 | DRSC14635 | 3.52e7 | 4.12e7 | 1.60e7 | 1.69e7
Jon99Ciii (Jonah 99Ciii) | DRSC16859 | 1.84e7 | 3.28e7 | 1.27e7 | 1.86e7
CG15873 | DRSC04277 | 3.83e7 | 4.23e7 | 2.00e7 | 2.10e7
PCID2 (PCI domain-containing protein 2) | DRSC10822 | 2.66e7 | 2.65e7 | 2.13e7 | 1.18e7
CG9010 | DRSC07320 | 3.80e7 | 3.65e7 | 1.76e7 | 1.82e7
Lgr4 (Leucine-rich repeat-containing G protein-coupled receptor 4) | DRSC18969 | 3.22e7 | 3.71e7 | 1.54e7 | 1.64e7
Lgr4 (Leucine-rich repeat-containing G protein-coupled receptor 4) | DRSC18970 | 4.10e7 | 3.20e7 | 2.09e7 | 1.60e7
Lgr4 (Leucine-rich repeat-containing G protein-coupled receptor 4) | DRSC19884 | 4.44e7 | 5.95e7 | 2.03e7 | 2.88e7
Prp8 (pre-mRNA processing factor 8) | DRSC07293 | 2.41e7 | 2.30e7 | 1.62e7 | 1.47e7
CG32642 | DRSC18959 | 4.96e7 | 3.32e7 | 2.11e7 | 1.60e7
Mppe (Metallophosphoesterase) | DRSC07296 | 2.82e7 | 3.27e7 | 1.19e7 | 1.48e7
dnd (dead end) | DRSC16064 | 4.34e7 | 5.05e7 | 8.39e7 | 2.48e7
CG8046 | DRSC07059 | 2.43e7 | 1.84e7 | 1.05e7 | 9.35e6
Polr2I (RNA polymerase II subunit I) | DRSC16832 | 9.45e6 | 1.69e7 | 6.97e6 | 4.81e7
kmg (kumgang) | DRSC02829 | 4.27e7 | 3.63e7 | 1.98e7 | 1.79e7
PIG-H (Phosphatidylinositol glycan anchor biosynthesis class H) | DRSC14856 | 4.31e7 | 3.05e7 | 2.05e7 | 1.45e7
Nos (Nitric oxide synthase) | DRSC03381 | 5.82e7 | – | 2.58e7 | –
CG12477 | DRSC09886 | 3.28e7 | 5.06e7 | 1.78e7 | 2.01e7

Looked up above:
Nos (Nitric oxide synthase) [DRSC03381], resting calcium signal, replicate 1 (fluorescence units) → 2.58e7
Value of PCID2 (PCI domain-containing protein 2) [DRSC10822] under “calcium entry signal, replicate 1 (fluorescence units)”: 2.66e7
Value of Jon99Ciii (Jonah 99Ciii) [DRSC16859] under “resting calcium signal, replicate 1 (fluorescence units)”: 1.27e7
Lgr4 (Leucine-rich repeat-containing G protein-coupled receptor 4) [DRSC18969], calcium entry signal, replicate 2 (fluorescence units): 3.71e7

Continued:
predicted target | amplicon | calcium entry signal, replicate 1 (fluorescence units) | calcium entry signal, replicate 2 (fluorescence units) | resting calcium signal, replicate 1 (fluorescence units) | resting calcium signal, replicate 2 (fluorescence units)
CG44433 | DRSC06517 | 5.22e7 | 5.58e7 | 2.20e7 | 2.65e7
CG44433 | DRSC06518 | 5.87e7 | 6.60e7 | 2.31e7 | 2.91e7
Esp (Epidermal stripes and patches) | DRSC16664 | 3.72e7 | 3.24e7 | 1.72e7 | 1.39e7
drd (drop dead) | DRSC19343 | 4.34e7 | 2.28e7 | 2.09e7 | 1.17e7
drd (drop dead) | DRSC21466 | 2.37e7 | 3.04e7 | 1.25e7 | 1.30e7
IntS4 (Integrator 4) | DRSC17810 | 2.11e7 | 3.01e7 | 1.21e7 | 1.45e7
Alp10 (Alkaline phosphatase 10) | DRSC09749 | 3.10e7 | 4.84e7 | 1.44e7 | 1.98e7
fu (fused) | DRSC20333 | 2.77e7 | 2.26e7 | 1.57e7 | 1.12e7
FRG1 (FSHD region gene 1) | DRSC10648 | 2.27e7 | 4.04e7 | 1.10e7 | 1.75e7
ptc (patched) | DRSC05117 | 1.62e7 | 3.05e7 | 9.39e6 | 1.35e7
ptc (patched) | DRSC07669 | 4.87e7 | 4.40e7 | 2.35e7 | 2.15e7
dpr5 (defective proboscis extension response 5) | DRSC15766 | 3.24e7 | 3.50e7 | 1.57e7 | 1.82e7
Dop1R2 (Dopamine 1-like receptor 2) | DRSC13958 | 3.91e7 | 4.78e7 | 1.85e7 | 2.28e7
Dop1R2 (Dopamine 1-like receptor 2) | DRSC15379 | 3.17e7 | 4.60e7 | 1.65e7 | 2.04e7
CG13607 | DRSC14610 | 6.37e7 | 4.00e7 | 2.68e7 | 1.69e7
SP2353 | DRSC07545 | 4.29e7 | 4.39e7 | 1.76e7 | 2.05e7
CG4950 | DRSC10463 | 3.92e7 | 4.64e7 | 1.87e7 | 1.67e7
CG6296 | DRSC16013 | 3.00e7 | 3.57e7 | 1.38e7 | 1.69e7
CG9391 | DRSC11858 | 2.12e7 | 3.25e7 | 1.14e7 | 1.49e7
ScsbetaA (Succinyl-coenzyme A synthetase beta subunit, ADP-forming) | DRSC14446 | 2.90e7 | 2.84e7 | 1.41e7 | 1.38e7
Elys | DRSC19571 | 3.04e7 | 3.20e7 | 1.59e7 | 1.49e7
Hr39 (Hormone receptor-like in 39) | DRSC03346 | 3.76e7 | – | 1.96e7 | –
CG1850 | DRSC06762 | 4.16e7 | 4.16e7 | 1.98e7 | 1.78e7
CG16815 | DRSC02521 | 5.86e7 | 3.30e7 | 2.41e7 | 1.52e7
beat-Vb (beaten path Vb) | DRSC12940 | 1.77e7 | 2.76e7 | 9.09e6 | 1.21e7
beat-Vb (beaten path Vb) | DRSC14844 | 4.78e7 | 2.71e7 | 1.97e7 | 1.49e7
beat-Vb (beaten path Vb) | DRSC14845 | 3.75e7 | 3.40e7 | 1.80e7 | 1.86e7
p115 | DRSC18813 | 2.64e7 | 3.64e7 | 1.56e7 | 1.61e7
HP6 (Heterochromatin protein 6) | DRSC00471 | 2.86e7 | 2.83e7 | 1.42e7 | 1.36e7
CG7183 | DRSC16210 | 4.23e7 | 4.10e7 | 1.88e7 | 1.78e7
CG10713 | DRSC09786 | 3.64e7 | 4.20e7 | 2.03e7 | 1.99e7
CG4741 | DRSC04228 | 4.37e7 | 4.20e7 | 2.13e7 | 2.05e7
CG4741 | DRSC04485 | 4.09e7 | 4.38e7 | 2.08e7 | 2.05e7
Prp38 (pre-mRNA processing factor 38) | DRSC07060 | 1.92e7 | 1.92e7 | 9.67e6 | 9.97e6
Sply (Sphingosine-1-phosphate lyase) | DRSC07299 | 3.45e7 | 2.04e7 | 1.97e7 | 1.09e7
